Experimental findings from article PMC5661634 are described below.

The chains behind the UniProt entries cited, without tags or fusion partners.
UniProt Q13596: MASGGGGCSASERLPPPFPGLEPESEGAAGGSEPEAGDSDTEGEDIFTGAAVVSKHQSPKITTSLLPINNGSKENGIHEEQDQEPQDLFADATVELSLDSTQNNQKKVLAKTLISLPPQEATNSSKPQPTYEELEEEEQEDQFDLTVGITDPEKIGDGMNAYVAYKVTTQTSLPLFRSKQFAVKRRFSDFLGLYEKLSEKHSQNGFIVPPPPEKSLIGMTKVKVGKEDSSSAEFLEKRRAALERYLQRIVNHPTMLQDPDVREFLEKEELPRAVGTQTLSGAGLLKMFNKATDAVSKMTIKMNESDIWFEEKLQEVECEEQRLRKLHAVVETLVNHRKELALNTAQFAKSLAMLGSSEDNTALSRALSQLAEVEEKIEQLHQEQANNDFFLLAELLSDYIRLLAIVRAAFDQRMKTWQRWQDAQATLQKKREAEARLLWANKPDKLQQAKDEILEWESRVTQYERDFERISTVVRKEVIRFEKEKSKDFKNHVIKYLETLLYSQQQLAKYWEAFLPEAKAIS

The target of experiment [1] is T1, GFP-SNX6 (full-length SNX6) (UniProt Q9UNH7).
T1 sequence: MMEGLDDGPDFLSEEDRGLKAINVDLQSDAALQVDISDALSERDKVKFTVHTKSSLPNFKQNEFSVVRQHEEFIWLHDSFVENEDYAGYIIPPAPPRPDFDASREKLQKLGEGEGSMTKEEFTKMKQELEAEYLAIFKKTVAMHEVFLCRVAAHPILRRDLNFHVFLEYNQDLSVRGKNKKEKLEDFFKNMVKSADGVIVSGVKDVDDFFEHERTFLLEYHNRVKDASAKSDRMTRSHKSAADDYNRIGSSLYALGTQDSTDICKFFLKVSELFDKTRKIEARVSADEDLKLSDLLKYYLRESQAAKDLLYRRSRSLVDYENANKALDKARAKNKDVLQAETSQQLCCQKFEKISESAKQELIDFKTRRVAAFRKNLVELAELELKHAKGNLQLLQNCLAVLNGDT
Put plainly: co-IP; GFP-SNX6 from transfected HEK293T lysate (50 mM Tris-HCl, 150 mM NaCl, 1 mM EDTA, 0.5% NP-40) held with anti-GFP antibody and protein A/G beads; purified GST-IncE proteins added, overnight; immunoblot; only the binder purified. In general terms: In western blotting, separated proteins are transferred to a membrane and probed.

In a further experiment the target is Flag-YFP-SNX6 Δ124–148 (UniProt Q9UNH7). Put plainly: co-IP; HEK293T transfected with Flag-YFP-SNX6 constructs; p100 fractions immunopurified with anti-Flag antibody; blotted with anti-SNX1 and anti-Flag.
Experiment [2] addresses GST-IncE^109–132 WT (Chlamydia trachomatis). In words: pull-down; GST pull-down: GST-IncE on beads, excess of soluble purified partner, 1 h at 4 °C; washed with 20 mM Tris pH 8.0, 200 mM NaCl, 0.005% Triton-X100, 2 mM DTT; SDS-PAGE, Coomassie; both purified.
The target of experiment [3] is MBP-IncE^109–132 (Chlamydia trachomatis). Put plainly: pull-down; MBP pull-down: MBP-IncE 109-132 on beads, GST-PX5 WT or mutants soluble; 1 h at 4 °C; samples cut with TEV before SDS-PAGE; Coomassie; both purified.
Experiment [4] has as its target GST-IncE^109–132 V127A (Chlamydia trachomatis). Put plainly: pull-down; GST pull-down: GST-IncE on beads, excess of soluble purified partner, 1 h at 4 °C; washed with 20 mM Tris pH 8.0, 200 mM NaCl, 0.005% Triton-X100, 2 mM DTT; SDS-PAGE, Coomassie; both purified.
Experiment [5] concerns the target GST-IncE^109–132 Q115A (Chlamydia trachomatis). The experiment is described as above.
For experiment [6], the target named is GST-IncE^109–132 F116A (Chlamydia trachomatis). The description is as above.
Experiment [7] deals with GST-IncE^109–132 V114A (Chlamydia trachomatis). Described as above.
Experiment [8] deals with GST-IncE^109–132 K118A (Chlamydia trachomatis). The description is as above.
Experiment [9] concerns the target GST-IncE^109–132 F117A (Chlamydia trachomatis). The experiment is described as above.

Changes are numbered by the printed parent chain. In names and notes the source's numbering stands. No constants are given. Whether binding was seen depends on the method and setting. For part of these data: Binding can be weak; no strength is given. For part of these data: Sequences can lack the tags named with a protein. For part of these data: In cells and extracts the contact can be indirect.

Take “GST-IncE^109–132 WT (Chlamydia trachomatis) (domain or fragment)”: in experiment [1], the binding result is “binds”. For the molecule “GST-IncE^109–132 F116A (Chlamydia trachomatis) (domain or fragment)”, the binding entry in experiment [1] is reported as “no binding”.

“GST-IncE^109–132 V114A (Chlamydia trachomatis) (domain or fragment)”: in experiment [1], the binding entry is “binds”.

Consider “SNX1 (endogenous) (from UniProt Q13596 1-522)”, for which the binding result with Flag-YFP-SNX6 Δ124–148 is given as “binds”.

B1: PX5 Δ102–131 (domain or fragment, UniProt Q9D8U8)
chain: SVSVDLNVDPSLQIDIPDALSERDKVKFTVHTKTTLSTFQSPEFSVTRQHEDFVWLHDTLTETTDYAGLIIPPAPTKPDFDGYLAVFKKTVSTHEVFLQRLSSHPVLSKDRNFHVFLEYDQDLSVRRKNTK
In the case of B1, in [2], the binding entry is reported as “no binding”.

B2: GST-PX5 WT (domain or fragment, UniProt Q9D8U8 20-180)
chain: SVSVDLNVDPSLQIDIPDALSERDKVKFTVHTKTTLSTFQSPEFSVTRQHEDFVWLHDTLTETTDYAGLIIPPAPTKPDFDGPREKMQKLGEGEGSMTKEEFAKMKQELEAEYLAVFKKTVSTHEVFLQRLSSHPVLSKDRNFHVFLEYDQDLSVRRKNTK
For the molecule B2, the binding entry in experiment [3] is “binds”.

B3: GST-PX5 L133A (domain or fragment, UniProt Q9D8U8 20-180)
chain: B2 chain with L114A
Consider B3, for which the binding result in experiment [3] is on record as “no binding”.

B4: GST-PX5 Y132A (domain or fragment, UniProt Q9D8U8 20-180)
chain: B2 chain with Y113A
As for B4, the binding result in [3] is listed as “no binding”.

B5: mouse SNX5 PX domain (residues 20–180) (domain or fragment, UniProt Q9D8U8 20-180)
chain: B2 chain
With B5, the binding result in [2] is “binds”; in experiment [4], “binds”; in experiment [5], “binds”; in experiment [6] it was “no binding”; in experiment [7], “no binding”; in experiment [8] it was “binds”. In addition, in experiment [9], the binding result is “binds”.

B6: GST-PX5 F136A (domain or fragment, UniProt Q9D8U8 20-180)
chain: B2 chain with F117A
As to B6, the binding result in [3] was “no binding”.

B7: GST-PX5 E144A (domain or fragment, UniProt Q9D8U8 20-180)
chain: B2 chain with E125A
Consider B7, for which the binding result in experiment [3] is listed as “binds”.

B8: GST-PX5 E129A (domain or fragment, UniProt Q9D8U8 20-180)
chain: B2 chain with E110A
For the molecule B8, the binding result in experiment [3] is “binds”.
